Assay results: patent publication US20190201430A1, “TREATING OCULAR NEOVASCULARIZATION” (Massachusetts Eye and Ear Infirmary, priority 2014, published 2019)
No constants are given. Whether binding was seen depends on the method and setting. Binding seen in cells or lysates may run through a third protein. Some binding calls cover weakened binding; strength is not graded here.

Protein sequences, listed by entry. Tags and fused reporters are not part of them. Residues count along the entry.
UniProt Q03135, residues 2-178: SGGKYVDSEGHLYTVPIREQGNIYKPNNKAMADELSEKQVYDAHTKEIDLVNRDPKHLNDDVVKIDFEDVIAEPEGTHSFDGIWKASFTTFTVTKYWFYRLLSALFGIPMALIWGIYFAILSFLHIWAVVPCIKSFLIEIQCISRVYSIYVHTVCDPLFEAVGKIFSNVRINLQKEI
UniProt P00519: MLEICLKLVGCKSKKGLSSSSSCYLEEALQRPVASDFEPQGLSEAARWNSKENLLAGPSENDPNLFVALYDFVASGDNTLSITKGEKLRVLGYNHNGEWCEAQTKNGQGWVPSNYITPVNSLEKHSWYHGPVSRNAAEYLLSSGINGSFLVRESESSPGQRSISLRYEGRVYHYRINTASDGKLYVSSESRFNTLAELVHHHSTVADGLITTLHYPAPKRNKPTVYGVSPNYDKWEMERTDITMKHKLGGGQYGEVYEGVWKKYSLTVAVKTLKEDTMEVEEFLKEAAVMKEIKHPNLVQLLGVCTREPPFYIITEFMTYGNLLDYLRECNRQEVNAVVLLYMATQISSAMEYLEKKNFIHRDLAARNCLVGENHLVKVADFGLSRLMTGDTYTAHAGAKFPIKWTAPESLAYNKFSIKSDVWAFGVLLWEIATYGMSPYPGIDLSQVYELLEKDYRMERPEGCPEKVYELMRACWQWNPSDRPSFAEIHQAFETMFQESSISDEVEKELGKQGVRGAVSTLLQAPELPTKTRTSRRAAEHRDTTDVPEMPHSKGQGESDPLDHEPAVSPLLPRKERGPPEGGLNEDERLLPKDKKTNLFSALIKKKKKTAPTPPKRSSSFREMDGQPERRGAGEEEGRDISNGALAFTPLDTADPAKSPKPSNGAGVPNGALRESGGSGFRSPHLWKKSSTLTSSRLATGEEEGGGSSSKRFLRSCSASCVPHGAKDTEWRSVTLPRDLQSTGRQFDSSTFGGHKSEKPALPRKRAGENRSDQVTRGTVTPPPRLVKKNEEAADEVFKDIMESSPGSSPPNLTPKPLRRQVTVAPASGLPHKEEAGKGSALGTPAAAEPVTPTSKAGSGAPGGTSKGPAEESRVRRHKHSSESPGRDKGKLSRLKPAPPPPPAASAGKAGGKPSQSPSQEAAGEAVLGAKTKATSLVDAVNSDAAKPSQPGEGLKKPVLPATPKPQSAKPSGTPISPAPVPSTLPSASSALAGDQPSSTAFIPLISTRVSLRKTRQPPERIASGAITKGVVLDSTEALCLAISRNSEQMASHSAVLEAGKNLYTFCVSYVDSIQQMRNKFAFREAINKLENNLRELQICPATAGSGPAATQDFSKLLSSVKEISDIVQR
UniProt P35968, residues 20-1356: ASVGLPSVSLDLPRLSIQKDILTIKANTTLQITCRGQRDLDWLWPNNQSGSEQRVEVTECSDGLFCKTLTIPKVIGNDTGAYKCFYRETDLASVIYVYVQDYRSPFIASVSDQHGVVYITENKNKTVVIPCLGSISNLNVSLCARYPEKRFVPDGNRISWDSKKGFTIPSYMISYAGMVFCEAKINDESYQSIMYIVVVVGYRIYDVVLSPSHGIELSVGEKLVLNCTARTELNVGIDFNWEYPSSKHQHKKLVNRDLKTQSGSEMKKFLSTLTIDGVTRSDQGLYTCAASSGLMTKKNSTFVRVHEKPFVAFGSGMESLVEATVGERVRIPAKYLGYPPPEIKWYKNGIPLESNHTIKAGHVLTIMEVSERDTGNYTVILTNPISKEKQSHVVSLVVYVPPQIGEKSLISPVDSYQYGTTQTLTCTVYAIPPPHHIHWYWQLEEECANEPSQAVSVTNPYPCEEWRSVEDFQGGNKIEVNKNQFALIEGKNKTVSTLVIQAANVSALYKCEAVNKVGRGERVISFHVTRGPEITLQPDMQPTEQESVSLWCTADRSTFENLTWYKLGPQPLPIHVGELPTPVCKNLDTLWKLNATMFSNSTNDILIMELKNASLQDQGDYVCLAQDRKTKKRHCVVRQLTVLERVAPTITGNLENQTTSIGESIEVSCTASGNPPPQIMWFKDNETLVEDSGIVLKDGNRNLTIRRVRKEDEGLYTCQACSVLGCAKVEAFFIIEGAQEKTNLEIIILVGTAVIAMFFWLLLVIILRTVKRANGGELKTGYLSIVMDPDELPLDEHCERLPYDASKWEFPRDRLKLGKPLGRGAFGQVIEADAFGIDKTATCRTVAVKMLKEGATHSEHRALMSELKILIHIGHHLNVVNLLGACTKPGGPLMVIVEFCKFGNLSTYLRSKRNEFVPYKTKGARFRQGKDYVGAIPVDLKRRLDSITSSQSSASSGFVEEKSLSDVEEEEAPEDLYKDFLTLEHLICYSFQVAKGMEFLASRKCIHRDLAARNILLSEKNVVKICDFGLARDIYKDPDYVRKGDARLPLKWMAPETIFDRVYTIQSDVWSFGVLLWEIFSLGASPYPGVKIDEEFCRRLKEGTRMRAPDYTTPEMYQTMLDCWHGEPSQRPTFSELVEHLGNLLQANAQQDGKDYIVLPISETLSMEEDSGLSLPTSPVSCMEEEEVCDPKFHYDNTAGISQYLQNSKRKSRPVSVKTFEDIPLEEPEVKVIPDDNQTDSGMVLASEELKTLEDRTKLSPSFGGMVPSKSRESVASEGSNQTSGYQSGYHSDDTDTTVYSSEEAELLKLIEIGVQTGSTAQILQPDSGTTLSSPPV

Key:
[1] = target: caveolin-1 (human (endogenous in HUVECs)) (UniProt Q03135); test: co-immunoprecipitation from HUVEC lysate: anti-caveolin-1 pull-down, anti-VEGFR2 immunoblot
[2] = target: c-Abl (human (endogenous in HUVECs)) (UniProt P00519); test: co-immunoprecipitation from HUVEC lysate: anti-prdx1 pull-down, anti-c-Abl immunoblot (H2O2 model)
[3] = target: c-Abl (human (endogenous in HUVECs)) (UniProt P00519); test: co-immunoprecipitation from HUVEC lysate: anti-prdx1 pull-down, anti-c-Abl immunoblot (VEGF model)
[4] = target: c-Abl (human (endogenous in HUVECs)) (UniProt P00519); test: co-immunoprecipitation from HUVEC lysate: anti-prdx1 pull-down, anti-c-Abl immunoblot (H2O2 model), figure legend
[5] = target: c-Abl (human (endogenous in HUVECs)) (UniProt P00519); test: co-immunoprecipitation from HUVEC lysate: anti-prdx1 pull-down, anti-c-Abl immunoblot (VEGF model), figure legend

Molecule: VEGF receptor-2 (VEGFR2) (from UniProt P35968 20-1356)
- binding [1]: binds

B1: Peroxiredoxin I (Prdx1) (enzyme, human (endogenous in HUVECs), UniProt Q06830 2-199, looked up)
chain: SSGNAKIGHPAPNFKATAVMPDGQFKDISLSDYKGKYVVFFFYPLDFTFVCPTEIIAFSDRAEEFKKLNCQVIGASVDSHFCHLAWVNTPKKQGGLGPMNIPLVSDPKRTIAQDYGVLKADEGISFRGLFIIDDKGILRQITVNDLPVGRSVDETLRLVQAFQFTDKHGEVCPAGWKPGSDTIKPDVQKSKEYFSKQK
- binding [2]: binds
- binding [3]: binds
- binding [4]: binds
- binding [5]: binds
